From patent US8251060B2, “Device and method for delivering an aerosol drug” (priority 2006, dated 2012)

Test: Mass transfer of polyols (aerosol formers) from cellulose pad substrate in aerosol drug delivery device
Conditions: about 300° C.

Structure (SMILES) | Total transfer of aerosol from device (%) (Expt. 4, 50 mg aerosol former on substrate, heated 5 min) | Total transfer of aerosol from device (%) (Expt. 5, 73 mg aerosol former on substrate, heated 5 min) | Total transfer of aerosol from device (%) (Expt. 6, 78 mg aerosol former on substrate, heated 5 min) | Total transfer of aerosol from device (%) (Expt. 1, 98 mg aerosol former on substrate, heated 10 min) | Total transfer of aerosol from device (%) (Expt. 2, 124 mg aerosol former on substrate, heated 10 min) | Total transfer of aerosol from device (%) (Expt. 3, 120 mg aerosol former on substrate, heated 10 min)
CC(O)CO (stereo not drawn) [Propylene Glycol (PEG), Propylene Glycol] | 100% | 62% | 79% |  |  | 
OCC(O)CO [Glycerin] |  |  |  | 47% | 36% | 34%
